Data from publication PMC10812921.
For some of these results: Tags and fusion partners may be left off the protein sequences shown.

Legend:
Assay in all cases: EMSA-SELEX-seq
[1] = test system: POU2 (OCT2 POU domain) + BOB1 (OBF1, OCA-B); conditions: with BOB1 (ternary complex band); 20 mM Tris-HCl pH 7.6, 140 mM NaCl, 10% glycerol, 0.5 mM EDTA, 0.05% Triton X-100, 0.1 mg/mL BSA, 0.1 mg/mL poly(dI-dC), 5 mM DTT, room temperature, 20 min; high values mean tight binding; recombinant protein; only the motif is given; counted as no binding
[2] = target: T1, POU2 (OCT2 POU domain) (human) (UniProt P09086); conditions: no BOB1; 20 mM Tris-HCl pH 7.6, 140 mM NaCl, 10% glycerol, 0.5 mM EDTA, 0.05% Triton X-100, 0.1 mg/mL BSA, 0.1 mg/mL poly(dI-dC), 5 mM DTT, room temperature, 20 min; high values mean tight binding; recombinant protein; only the motif is given; counted as no binding
T1 sequence (looked up, limits assumed): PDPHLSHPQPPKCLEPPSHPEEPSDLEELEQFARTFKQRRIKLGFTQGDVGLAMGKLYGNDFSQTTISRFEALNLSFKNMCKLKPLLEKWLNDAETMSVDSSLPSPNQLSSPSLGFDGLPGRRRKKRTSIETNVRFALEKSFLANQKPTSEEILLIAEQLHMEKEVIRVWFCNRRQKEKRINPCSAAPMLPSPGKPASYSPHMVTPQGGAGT

[3] = test system: POU1 (OCT1 POU domain) + BOB1 (OBF1, OCA-B); conditions: with BOB1 (ternary complex band); 20 mM Tris-HCl pH 7.6, 140 mM NaCl, 10% glycerol, 0.5 mM EDTA, 0.05% Triton X-100, 0.1 mg/mL BSA, 0.1 mg/mL poly(dI-dC), 5 mM DTT, room temperature, 20 min; high values mean tight binding; recombinant protein; only the motif is given; counted as no binding
[4] = target: T2, POU1 (OCT1 POU domain) (human) (UniProt P14859); conditions: no BOB1; 20 mM Tris-HCl pH 7.6, 140 mM NaCl, 10% glycerol, 0.5 mM EDTA, 0.05% Triton X-100, 0.1 mg/mL BSA, 0.1 mg/mL poly(dI-dC), 5 mM DTT, room temperature, 20 min; high values mean tight binding; recombinant protein; only the motif is given; counted as no binding
T2 sequence (looked up, limits assumed): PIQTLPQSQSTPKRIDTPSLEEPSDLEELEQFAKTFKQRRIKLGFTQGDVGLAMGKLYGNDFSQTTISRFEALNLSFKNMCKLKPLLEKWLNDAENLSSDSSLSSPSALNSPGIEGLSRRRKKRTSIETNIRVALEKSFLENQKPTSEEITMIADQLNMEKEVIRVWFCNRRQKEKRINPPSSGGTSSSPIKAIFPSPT

**Q.** For AACCCAAG (double strand), which binding signal (% of ANNNNAAN 8-mers) [1] is on record?
**A.** 0.00826

**Q.** How did the binding signal (% of ANNNNAAN 8-mers) [2] turn out when AACCTAAC (double strand) was run?
**A.** 0.00921

**Q.** And the binding signal (% of ANNNNAAN 8-mers) [3]?
**A.** 0.00976

**Q.** How did the binding signal (% of ANNNNAAN 8-mers) [3] turn out when AACGCAAC (double strand) was run?
**A.** 0.00858

**Q.** Which binding signal (% of ANNNNAAN 8-mers) [4] does the source give for ACACCAAC (double strand) here?
**A.** 0.00801

**Q.** How did the binding signal (% of ANNNNAAN 8-mers) [1] turn out when ACAGCAAC (double strand) was run?
**A.** 0.00991

**Q.** With ACCACAAC (double strand) as the sequence, how does the binding signal (% of ANNNNAAN 8-mers) [1] read?
**A.** 0.00908

**Q.** What about the binding signal (% of ANNNNAAN 8-mers) [3] of the same sequence?
**A.** 0.00937

**Q.** How did the binding signal (% of ANNNNAAN 8-mers) [1] turn out when ACCACAAG (double strand) was run?
**A.** 0.00826

**Q.** With ACCCAAAC (double strand) as the sequence, how does the binding signal (% of ANNNNAAN 8-mers) [2] read?
**A.** 0.00748

**Q.** What about the binding signal (% of ANNNNAAN 8-mers) [4] of the same sequence?
**A.** 0.00725

**Q.** How did the binding signal (% of ANNNNAAN 8-mers) [2] turn out when ACCCCAAC (double strand) was run?
**A.** 0.00575

**Q.** And the binding signal (% of ANNNNAAN 8-mers) [4]?
**A.** 0.00496

**Q.** What about the binding signal (% of ANNNNAAN 8-mers) [1] of the same sequence?
**A.** 0.00413

**Q.** What about the binding signal (% of ANNNNAAN 8-mers) [3] of the same sequence?
**A.** 0.00546

**Q.** How did the binding signal (% of ANNNNAAN 8-mers) [4] turn out when ACCCCAAG (double strand) was run?
**A.** 0.00839

**Q.** What about the binding signal (% of ANNNNAAN 8-mers) [1] of the same sequence?
**A.** 0.00991

**Q.** Which binding signal (% of ANNNNAAN 8-mers) [3] does the source give for ACCCGAAC (double strand) here?
**A.** 0.00898

**Q.** With ACCCTAAC (double strand) as the sequence, how does the binding signal (% of ANNNNAAN 8-mers) [3] read?
**A.** 0.00819

**Q.** For ACCGAAAC (double strand), which binding signal (% of ANNNNAAN 8-mers) [1] is on record?
**A.** 0.00826

**Q.** Which binding signal (% of ANNNNAAN 8-mers) [2] does the source give for ACCGCAAC (double strand) here?
**A.** 0.00921

**Q.** What about the binding signal (% of ANNNNAAN 8-mers) [3] of the same sequence?
**A.** 0.00819

**Q.** For ACCGCAAG (double strand), which binding signal (% of ANNNNAAN 8-mers) [1] is on record?
**A.** 0.00991

**Q.** For ACCGGAAG (double strand), which binding signal (% of ANNNNAAN 8-mers) [4] is on record?
**A.** 0.00877

**Q.** And the binding signal (% of ANNNNAAN 8-mers) [3]?
**A.** 0.00898

**Q.** Which binding signal (% of ANNNNAAN 8-mers) [2] does the source give for ACCTCAAC (double strand) here?
**A.** 0.00978

**Q.** What about the binding signal (% of ANNNNAAN 8-mers) [4] of the same sequence?
**A.** 0.00725

**Q.** Which binding signal (% of ANNNNAAN 8-mers) [1] does the source give for ACCTCAAG (double strand) here?
**A.** 0.00826

**Q.** For ACCTGAAC (double strand), which binding signal (% of ANNNNAAN 8-mers) [2] is on record?
**A.** 0.00863

**Q.** Which results are given for ACGCCAAC (double strand)?
**A.** binding signal (% of ANNNNAAN 8-mers) [4]: 0.00915; binding signal (% of ANNNNAAN 8-mers) [1]: 0.00908

**Q.** For ACGCCAAG (double strand), which binding signal (% of ANNNNAAN 8-mers) [3] is on record?
**A.** 0.00937

**Q.** With ACTCCAAC (double strand) as the sequence, how does the binding signal (% of ANNNNAAN 8-mers) [2] read?
**A.** 0.00863

**Q.** For ACTGCAAC (double strand), which binding signal (% of ANNNNAAN 8-mers) [1] is on record?
**A.** 0.00826

**Q.** How did the binding signal (% of ANNNNAAN 8-mers) [2] turn out when AGACCAAC (double strand) was run?
**A.** 0.00921

**Q.** And the binding signal (% of ANNNNAAN 8-mers) [4]?
**A.** 0.00992

**Q.** And the binding signal (% of ANNNNAAN 8-mers) [1]?
**A.** 0.00743

**Q.** And the binding signal (% of ANNNNAAN 8-mers) [3]?
**A.** 0.00937

**Q.** AGCACAAC (double strand) was tested. Which binding signal (% of ANNNNAAN 8-mers) [3] did it give?
**A.** 0.00898

**Q.** What does the source list for AGCCCAAC (double strand)?
**A.** binding signal (% of ANNNNAAN 8-mers) [2]: 0.00921; binding signal (% of ANNNNAAN 8-mers) [4]: 0.00686

**Q.** AGCCCAAG (double strand) was tested. Which binding signal (% of ANNNNAAN 8-mers) [2] did it give?
**A.** 0.00978

**Q.** Which binding signal (% of ANNNNAAN 8-mers) [4] does the source give for AGCTCAAC (double strand) here?
**A.** 0.00877
